The list shows a part of the results.
How the values were obtained:
Assay in all cases: glycan array binding signal (z-score within array); higher = stronger binding
Conditions in all cases: glycan notation: IUPAC condensed, linker removed
[1] = target: Fuc(a1-2)[Gal(a1-3)]Gal(b1-4)GlcNAc(b1-2)Man(a1-3)[Fuc(a1-2)[Gal(a1-3)]Gal(b1-4)GlcNAc(b1-2)Man(a1-6)]Man(b1-4)GlcNAc(b1-4)GlcNAc
How it was run: (§1)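 The binding signal is a Z-score computed within each array. Data were drawn from 3228 arrays in the Consortium for Functional Glycomics database, restricted to those with a known protein sequence. Scores were averaged over arrays of the same protein sequence at different concentrations or buffers, and over linkers, and negative values can be taken as non-binding.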

[2] = target: Fuc(a1-2)[Gal(a1-3)]Gal(b1-4)GlcNAc(b1-2)Man(a1-3)[Fuc(a1-2)[Gal(a1-3)]Gal(b1-4)GlcNAc(b1-2)Man(a1-6)]Man(b1-4)GlcNAc(b1-4)[Fuc(a1-6)]GlcNAc
How it was run: as §1

[3] = target: Fuc(a1-2)[Gal(a1-3)]Gal(b1-4)GlcNAc(b1-3)GalNAc
How it was run: as §1

[4] = target: Fuc(a1-2)[Gal(a1-3)]Gal(b1-4)GlcNAc(b1-3)[Fuc(a1-2)[Gal(a1-3)]Gal(b1-4)GlcNAc(b1-6)]GalNAc
How it was run: as §1

[5] = target: Fuc(a1-2)[Gal(a1-3)]Gal(b1-4)GlcNAc(b1-6)GalNAc
How it was run: as §1

[6] = target: Fuc(a1-2)[Gal(a1-3)]Gal(b1-4)[Fuc(a1-3)]Glc
How it was run: as §1

[7] = target: Fuc(a1-2)[Gal(a1-3)]Gal(b1-4)[Fuc(a1-3)]GlcNAc
How it was run: as §1

[8] = target: Fuc(a1-2)[Gal(a1-3)]Gal(b1-4)[Fuc(a1-3)]GlcNAc(b1-3)GalNAc
How it was run: as §1

[9] = target: Fuc(a1-2)[Gal(a1-4)]Gal(b1-4)GlcNAc
How it was run: as §1

[10] = target: Fuc(a1-2)[GalNAc(a1-3)]Gal
How it was run: as §1

[11] = target: Fuc(a1-2)[GalNAc(a1-3)]Gal(b1-3)GalNAc(a1-3)[Fuc(a1-2)]Gal(b1-4)GlcNAc
How it was run: as §1

[12] = target: Fuc(a1-2)[GalNAc(a1-3)]Gal(b1-3)GalNAc(b1-3)Gal(a1-4)Gal(b1-4)Glc
How it was run: as §1

[13] = target: Fuc(a1-2)[GalNAc(a1-3)]Gal(b1-3)GlcNAc
How it was run: as §1

[14] = target: Fuc(a1-2)[GalNAc(a1-3)]Gal(b1-3)GlcNAc(b1-2)Man(a1-3)[Fuc(a1-2)[GalNAc(a1-3)]Gal(b1-3)GlcNAc(b1-2)Man(a1-6)]Man(b1-4)GlcNAc(b1-4)GlcNAc
How it was run: as §1

[15] = target: Fuc(a1-2)[GalNAc(a1-3)]Gal(b1-3)GlcNAc(b1-2)Man(a1-3)[Fuc(a1-2)[GalNAc(a1-3)]Gal(b1-3)GlcNAc(b1-2)Man(a1-6)]Man(b1-4)GlcNAc(b1-4)[Fuc(a1-6)]GlcNAc
How it was run: as §1

[16] = target: Fuc(a1-2)[GalNAc(a1-3)]Gal(b1-3)GlcNAc(b1-3)GalNAc
How it was run: as §1

[17] = target: Fuc(a1-2)[GalNAc(a1-3)]Gal(b1-3)GlcNAc(b1-6)GalNAc
How it was run: as §1

[18] = target: Fuc(a1-2)[GalNAc(a1-3)]Gal(b1-4)Glc
How it was run: as §1

[19] = target: Fuc(a1-2)[GalNAc(a1-3)]Gal(b1-4)GlcNAc
How it was run: as §1

[20] = target: Fuc(a1-2)[GalNAc(a1-3)]Gal(b1-4)GlcNAc(b1-2)Man
How it was run: as §1

[21] = target: Fuc(a1-2)[GalNAc(a1-3)]Gal(b1-4)GlcNAc(b1-2)Man(a1-3)[Fuc(a1-2)[GalNAc(a1-3)]Gal(b1-4)GlcNAc(b1-2)Man(a1-6)]Man(b1-4)GlcNAc(b1-4)GlcNAc
How it was run: as §1

[22] = target: Fuc(a1-2)[GalNAc(a1-3)]Gal(b1-4)GlcNAc(b1-2)Man(a1-3)[Fuc(a1-2)[GalNAc(a1-3)]Gal(b1-4)GlcNAc(b1-2)Man(a1-6)]Man(b1-4)GlcNAc(b1-4)[Fuc(a1-6)]GlcNAc
How it was run: as §1

[23] = target: Fuc(a1-2)[GalNAc(a1-3)]Gal(b1-4)GlcNAc(b1-3)Gal(b1-4)GlcNAc
How it was run: as §1

[24] = target: Fuc(a1-2)[GalNAc(a1-3)]Gal(b1-4)GlcNAc(b1-3)Gal(b1-4)GlcNAc(b1-3)Gal(b1-4)GlcNAc
How it was run: as §1

[25] = target: Fuc(a1-2)[GalNAc(a1-3)]Gal(b1-4)GlcNAc(b1-3)GalNAc
How it was run: as §1

[26] = target: Fuc(a1-2)[GalNAc(a1-3)]Gal(b1-4)GlcNAc(b1-3)[Fuc(a1-2)[GalNAc(a1-3)]Gal(b1-4)GlcNAc(b1-6)]GalNAc
How it was run: as §1

[27] = target: Fuc(a1-2)[GalNAc(a1-3)]Gal(b1-4)GlcNAc(b1-6)GalNAc
How it was run: as §1

[28] = target: Fuc(a1-2)[GalNAc(a1-3)]Gal(b1-4)[Fuc(a1-3)]GlcNAc
How it was run: as §1

[29] = target: Fuc(a1-2)[GalNAc(a1-3)]Gal(b1-4)[Fuc(a1-3)]GlcNAc(b1-3)GalNAc
How it was run: as §1

[30] = target: Fuc(a1-2)[GalNAc(a1-4)]Gal(b1-4)GlcNAc
How it was run: as §1

[31] = target: Fuc(a1-2)[GalNAc(b1-3)]Gal
How it was run: as §1

[32] = target: Fuc(a1-3)GlcNAc
How it was run: as §1

[33] = target: Fuc(a1-3)[Gal(b1-4)]Glc6S
How it was run: as §1

[34] = target: Fuc(a1-3)[Gal(b1-4)]GlcNAc
How it was run: as §1

[35] = target: Fuc(a1-3)[Gal(b1-4)]GlcNAc(b1-2)Man
How it was run: as §1

[36] = target: Fuc(a1-3)[Gal(b1-4)]GlcNAc(b1-2)Man(a1-3)[Fuc(a1-3)[Gal(b1-4)]GlcNAc(b1-2)Man(a1-6)]Man(b1-4)GlcNAc(b1-4)GlcNAc
How it was run: as §1

[37] = target: Fuc(a1-3)[Gal(b1-4)]GlcNAc(b1-2)Man(a1-3)[Fuc(a1-3)[Gal(b1-4)]GlcNAc(b1-2)Man(a1-6)]Man(b1-4)GlcNAc(b1-4)[Fuc(a1-6)]GlcNAc
How it was run: as §1

[38] = target: Fuc(a1-3)[Gal(b1-4)]GlcNAc(b1-3)Gal(b1-3)[Fuc(a1-4)]GlcNAc
How it was run: as §1

[39] = target: Fuc(a1-3)[Gal(b1-4)]GlcNAc(b1-3)Gal(b1-4)[Fuc(a1-3)]GlcNAc
How it was run: as §1

[40] = target: Fuc(a1-3)[Gal(b1-4)]GlcNAc(b1-3)Gal(b1-4)[Fuc(a1-3)]GlcNAc(b1-3)Gal(b1-4)[Fuc(a1-3)]GlcNAc
How it was run: as §1

[41] = target: Fuc(a1-3)[Gal(b1-4)]GlcNAc(b1-3)GalNAc
How it was run: as §1

[42] = target: Fuc(a1-3)[Gal(b1-4)]GlcNAc(b1-6)GalNAc
How it was run: as §1

[43] = target: Fuc(a1-3)[Gal(b1-4)]GlcNAc(b1-6)[Gal(b1-3)GlcNAc(b1-3)]Gal(b1-4)Glc
How it was run: as §1

[44] = target: Fuc(a1-3)[Gal(b1-4)]GlcNAc6S
How it was run: as §1

[45] = target: Fuc(a1-3)[Gal3S(b1-4)]Glc
How it was run: as §1

B1: SabA (Helicobacter pylori) (protein)
chain: MGSSHHHHHHSSGLVPRGSHMENLYFQGEDNGFFVSAGYQIGEAVQMVKNTGELKNLNEKYEQLSQYLNQVASLKQSIQNANNIELVNSSLNYLKSFTNNNYNSTTQSPIFNAVQAVITSVLGFWSLYAGNYFTFFVGKKVGDSGQPASVQGNPPFKTIIENCSGIENCAMDQTTYDKMKKLAEDLQAAQTNSATKGNNLCALSGCAATDSTSNPPNSTVSNALNLAQQLMDLIANTKTAMMWKNIVISGVSNTSGAITSTNYPTQYAVFNNIKAMIPILQQAVTLSQSNHTLSASLQAQATGSQTNPKFAKDIYTFAQNQKQVISYAQDIFNLFNSIPAEQYKYLEKAYLKIPNAGSTPTNPYRQVVNLNQEVQTIKNNVSYYGNRVDAALSVARDVYNLKSNQAEIVTAYNDAKTLSEEISKLPHNQVNTKDIVTLPYDKNAPAAGQSNYQINPEQQSNLNQALAAMSNNPFKKVGMISSQNNNGA
glycan array binding signal (z-score) [1]: -0.026
glycan array binding signal (z-score) [2]: 1.37
glycan array binding signal (z-score) [3]: -0.376
glycan array binding signal (z-score) [4]: 2.78
glycan array binding signal (z-score) [5]: -0.065
glycan array binding signal (z-score) [6]: -0.48
glycan array binding signal (z-score) [7]: -0.058
glycan array binding signal (z-score) [8]: 0.348
glycan array binding signal (z-score) [9]: -0.526
glycan array binding signal (z-score) [10]: 0.183
glycan array binding signal (z-score) [11]: -0.73
glycan array binding signal (z-score) [12]: 0.24
glycan array binding signal (z-score) [13]: 0.031
glycan array binding signal (z-score) [14]: -0.485
glycan array binding signal (z-score) [15]: 0.437
glycan array binding signal (z-score) [16]: 0.802
glycan array binding signal (z-score) [17]: -0.962
glycan array binding signal (z-score) [18]: -0.596
glycan array binding signal (z-score) [19]: -0.145
glycan array binding signal (z-score) [20]: -0.319
glycan array binding signal (z-score) [21]: -0.361
glycan array binding signal (z-score) [22]: 1.65
glycan array binding signal (z-score) [23]: -0.455
glycan array binding signal (z-score) [24]: -0.285
glycan array binding signal (z-score) [25]: -0.419
glycan array binding signal (z-score) [26]: -0.028
glycan array binding signal (z-score) [27]: -0.962
glycan array binding signal (z-score) [28]: 0.137
glycan array binding signal (z-score) [29]: 0.302
glycan array binding signal (z-score) [30]: -0.374
glycan array binding signal (z-score) [31]: -0.571
glycan array binding signal (z-score) [32]: -0.659
glycan array binding signal (z-score) [33]: 0.92
glycan array binding signal (z-score) [34]: 0.428
glycan array binding signal (z-score) [35]: -0.421
glycan array binding signal (z-score) [36]: -0.661
glycan array binding signal (z-score) [37]: -0.218
glycan array binding signal (z-score) [38]: -0.032
glycan array binding signal (z-score) [39]: 1.26
glycan array binding signal (z-score) [40]: -0.77
glycan array binding signal (z-score) [41]: 0.654
glycan array binding signal (z-score) [42]: 1.95
glycan array binding signal (z-score) [43]: -0.702
glycan array binding signal (z-score) [44]: 0.599
glycan array binding signal (z-score) [45]: -0.249
